{"source": "the supplement of paper PMC8728848", "assay_in_all_cases": "glycan array binding signal (z-score within array); higher = stronger binding", "conditions_in_all_cases": "glycan notation: IUPAC condensed, linker removed", "key": {"[1]": {"target": "Gal(b1-4)GlcNAc(b1-3)Gal(b1-4)GlcNAc(b1-2)[Gal(b1-4)GlcNAc(b1-3)Gal(b1-4)GlcNAc(b1-6)]Man(a1-6)[Gal(b1-4)GlcNAc(b1-3)Gal(b1-4)GlcNAc(b1-2)Man(a1-3)]Man(b1-4)GlcNAc(b1-4)GlcNAc", "procedure,_shortened": "(§1)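 Arrays were curated from the Consortium for Functional Glycomics database, 3228 in total, and kept only where the protein sequence was available. Binding is expressed as a within-array Z-score. This score was averaged across arrays of the same protein sequence at different concentrations or buffers and across linkers, and negative values can be read as non-binding.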"}, "[2]": {"target": "Gal(b1-4)GlcNAc(b1-3)Gal(b1-4)GlcNAc(b1-2)[Gal(b1-4)GlcNAc(b1-3)Gal(b1-4)GlcNAc(b1-6)]Man(a1-6)[Gal(b1-4)GlcNAc(b1-3)Gal(b1-4)GlcNAc(b1-2)Man(a1-3)]Man(b1-4)GlcNAc(b1-4)[Fuc(a1-6)]GlcNAc", "procedure,_shortened": "as §1"}, "[3]": {"target": "Gal(b1-4)GlcNAc(b1-3)Gal(b1-4)GlcNAc(b1-3)Gal(b1-4)GlcNAc", "procedure,_shortened": "as §1"}, "[4]": {"target": "Gal(b1-4)GlcNAc(b1-3)Gal(b1-4)GlcNAc(b1-3)Gal(b1-4)GlcNAc(b1-2)Man(a1-3)[Gal(b1-4)GlcNAc(b1-3)Gal(b1-4)GlcNAc(b1-3)Gal(b1-4)GlcNAc(b1-2)Man(a1-6)]Man(b1-4)GlcNAc(b1-4)GlcNAc", "procedure,_shortened": "as §1"}, "[5]": {"target": "Gal(b1-4)GlcNAc(b1-3)Gal(b1-4)GlcNAc(b1-3)Gal(b1-4)GlcNAc(b1-2)Man(a1-3)[Gal(b1-4)GlcNAc(b1-3)Gal(b1-4)GlcNAc(b1-3)Gal(b1-4)GlcNAc(b1-2)Man(a1-6)]Man(b1-4)GlcNAc(b1-4)[Fuc(a1-6)]GlcNAc", "procedure,_shortened": "as §1"}, "[6]": {"target": "Gal(b1-4)GlcNAc(b1-3)Gal(b1-4)GlcNAc(b1-3)Gal(b1-4)GlcNAc(b1-2)[Gal(b1-4)GlcNAc(b1-3)Gal(b1-4)GlcNAc(b1-3)Gal(b1-4)GlcNAc(b1-6)]Man(a1-6)[Gal(b1-4)GlcNAc(b1-3)Gal(b1-4)GlcNAc(b1-3)Gal(b1-4)GlcNAc(b1-2)Man(a1-3)]Man(b1-4)GlcNAc(b1-4)[Fuc(a1-6)]GlcNAc", "procedure,_shortened": "as §1"}, "[7]": {"target": "Gal(b1-4)GlcNAc(b1-3)Gal(b1-4)GlcNAc(b1-3)Gal(b1-4)GlcNAc(b1-3)Gal(b1-4)GlcNAc(b1-2)Man(a1-3)[Gal(b1-4)GlcNAc(b1-3)Gal(b1-4)GlcNAc(b1-3)Gal(b1-4)GlcNAc(b1-3)Gal(b1-4)GlcNAc(b1-2)Man(a1-6)]Man(b1-4)GlcNAc(b1-4)GlcNAc", "procedure,_shortened": "as §1"}, "[8]": {"target": "Gal(b1-4)GlcNAc(b1-3)Gal(b1-4)GlcNAc(b1-3)Gal(b1-4)GlcNAc(b1-3)Gal(b1-4)GlcNAc(b1-2)Man(a1-3)[Gal(b1-4)GlcNAc(b1-3)Gal(b1-4)GlcNAc(b1-3)Gal(b1-4)GlcNAc(b1-3)Gal(b1-4)GlcNAc(b1-2)Man(a1-6)]Man(b1-4)GlcNAc(b1-4)[Fuc(a1-6)]GlcNAc", "procedure,_shortened": "as §1"}, "[9]": {"target": "Gal(b1-4)GlcNAc(b1-3)Gal(b1-4)GlcNAc(b1-3)Gal(b1-4)GlcNAc(b1-3)Gal(b1-4)GlcNAc(b1-2)[Gal(b1-4)GlcNAc(b1-3)Gal(b1-4)GlcNAc(b1-3)Gal(b1-4)GlcNAc(b1-3)Gal(b1-4)GlcNAc(b1-6)]Man(a1-6)[Gal(b1-4)GlcNAc(b1-3)Gal(b1-4)GlcNAc(b1-3)Gal(b1-4)GlcNAc(b1-3)Gal(b1-4)GlcNAc(b1-2)Man(a1-3)]Man(b1-4)GlcNAc(b1-4)[Fuc(a1-6)]GlcNAc", "procedure,_shortened": "as §1"}, "[10]": {"target": "Gal(b1-4)GlcNAc(b1-3)Gal(b1-4)GlcNAc(b1-3)Gal(b1-4)GlcNAc(b1-3)Gal(b1-4)GlcNAc(b1-3)Gal(b1-4)GlcNAc(b1-2)Man(a1-3)[Gal(b1-4)GlcNAc(b1-3)Gal(b1-4)GlcNAc(b1-3)Gal(b1-4)GlcNAc(b1-3)Gal(b1-4)GlcNAc(b1-3)Gal(b1-4)GlcNAc(b1-2)Man(a1-6)]Man(b1-4)GlcNAc(b1-4)GlcNAc", "procedure,_shortened": "as §1"}, "[11]": {"target": "Gal(b1-4)GlcNAc(b1-3)Gal(b1-4)GlcNAc(b1-3)Gal(b1-4)GlcNAc(b1-3)Gal(b1-4)GlcNAc(b1-3)Gal(b1-4)GlcNAc(b1-2)Man(a1-3)[Gal(b1-4)GlcNAc(b1-3)Gal(b1-4)GlcNAc(b1-3)Gal(b1-4)GlcNAc(b1-3)Gal(b1-4)GlcNAc(b1-3)Gal(b1-4)GlcNAc(b1-2)Man(a1-6)]Man(b1-4)GlcNAc(b1-4)[Fuc(a1-6)]GlcNAc", "procedure,_shortened": "as §1"}, "[12]": {"target": "Gal(b1-4)GlcNAc(b1-3)Gal(b1-4)GlcNAc(b1-3)Gal(b1-4)GlcNAc(b1-3)Gal(b1-4)GlcNAc(b1-3)Gal(b1-4)GlcNAc(b1-2)[Gal(b1-4)GlcNAc(b1-3)Gal(b1-4)GlcNAc(b1-3)Gal(b1-4)GlcNAc(b1-3)Gal(b1-4)GlcNAc(b1-3)Gal(b1-4)GlcNAc(b1-6)]Man(a1-6)[Gal(b1-4)GlcNAc(b1-3)Gal(b1-4)GlcNAc(b1-3)Gal(b1-4)GlcNAc(b1-3)Gal(b1-4)GlcNAc(b1-3)Gal(b1-4)GlcNAc(b1-2)Man(a1-3)]Man(b1-4)GlcNAc(b1-4)[Fuc(a1-6)]GlcNAc", "procedure,_shortened": "as §1"}, "[13]": {"target": "Gal(b1-4)GlcNAc(b1-3)Gal(b1-4)GlcNAc(b1-3)Gal(b1-4)GlcNAc(b1-3)Gal(b1-4)GlcNAc(b1-3)Gal(b1-4)GlcNAc(b1-3)Gal(b1-4)GlcNAc(b1-2)Man(a1-3)[Gal(b1-4)GlcNAc(b1-3)Gal(b1-4)GlcNAc(b1-3)Gal(b1-4)GlcNAc(b1-3)Gal(b1-4)GlcNAc(b1-3)Gal(b1-4)GlcNAc(b1-3)Gal(b1-4)GlcNAc(b1-2)Man(a1-6)]Man(b1-4)GlcNAc(b1-4)GlcNAc", "procedure,_shortened": "as §1"}, "[14]": {"target": "Gal(b1-4)GlcNAc(b1-3)Gal(b1-4)GlcNAc(b1-3)GalNAc", "procedure,_shortened": "as §1"}, "[15]": {"target": "Gal(b1-4)GlcNAc(b1-3)Gal(b1-4)GlcNAc(b1-3)[Gal(b1-4)GlcNAc(b1-3)Gal(b1-4)GlcNAc(b1-6)]GalNAc", "procedure,_shortened": "as §1"}, "[16]": {"target": "Gal(b1-4)GlcNAc(b1-3)Gal(b1-4)GlcNAc(b1-6)[Gal(b1-3)]GalNAc", "procedure,_shortened": "as §1"}, "[17]": {"target": "Gal(b1-4)GlcNAc(b1-3)Gal(b1-4)[Fuc(a1-3)]GlcNAc(b1-3)Gal(b1-4)[Fuc(a1-3)]GlcNAc", "procedure,_shortened": "as §1"}, "[18]": {"target": "Gal(b1-4)GlcNAc(b1-3)GalNAc", "procedure,_shortened": "as §1"}, "[19]": {"target": "Gal(b1-4)GlcNAc(b1-3)[Fuc(a1-3)GlcNAc(b1-6)]Gal(b1-4)Glc", "procedure,_shortened": "as §1"}, "[20]": {"target": "Gal(b1-4)GlcNAc(b1-3)[Gal(b1-4)GlcNAc(b1-6)]Gal(b1-4)GlcNAc", "procedure,_shortened": "as §1"}, "[21]": {"target": "Gal(b1-4)GlcNAc(b1-3)[GlcNAc(b1-6)]Gal(b1-4)GlcNAc", "procedure,_shortened": "as §1"}, "[22]": {"target": "Gal(b1-4)GlcNAc(b1-6)Gal(b1-4)GlcNAc", "procedure,_shortened": "as §1"}, "[23]": {"target": "Gal(b1-4)GlcNAc(b1-6)GalNAc", "procedure,_shortened": "as §1"}, "[24]": {"target": "Gal(b1-4)GlcNAc(b1-6)[Gal(b1-3)]GalNAc", "procedure,_shortened": "as §1"}, "[25]": {"target": "Gal(b1-4)GlcNAc(b1-6)[Gal(b1-4)GlcNAc(b1-3)]GalNAc", "procedure,_shortened": "as §1"}, "Gal(b1-4)GlcNAc6P": {"target": "Gal(b1-4)GlcNAc6P", "procedure,_shortened": "as §1"}, "Gal(b1-6)Gal": {"target": "Gal(b1-6)Gal", "procedure,_shortened": "as §1"}, "Gal3S(b1-3)GalNAc": {"target": "Gal3S(b1-3)GalNAc", "procedure,_shortened": "as §1"}, "Gal3S(b1-3)GlcNAc": {"target": "Gal3S(b1-3)GlcNAc", "procedure,_shortened": "as §1"}, "[26]": {"target": "Gal3S(b1-3)[Fuc(a1-4)]GlcNAc", "procedure,_shortened": "as §1"}}, "note": "This is one part of the list."}
{"binder": "CD4 (Rattus norvegicus), P05540 (protein) MCRGFSFRHLLPLLLLQLSKLLVVTQGSTSITAYKSEGESAEFSFPLNLGEESLQGELRWKAEKAPSSQSWITFSLKNQKVSVQKSTSNPKFQLSETLPLTLQIPQVSLQFAGSGNLTLTLDRGILYQEVNLVVMKVTQPDSNTLTCEVMGPTSPKMRLILKQENQEARVSRQEKVIQVQAPEAGVWQCLLSEGEEVKMDSKIQVLSKGLNSGGGSGGGTGGGDLAPQMLRELQETNAALQDVRELLRQQVKEITFLKNTVMECDACGLDRNLPPLAPLGPHPETLVKVKDAEDQLGARVGYIELDLNSGKILESFRPEERFPMMSTFKVLLCGAVLSRIDAGQEQLGRRIHYSQNDLVEYSPVTEKHLTDGMTVRELCSAAITMSDNTAANLLLTTIGGPKELTAFLHNMGDHVTRLDRWEPELNEAIPNDERDTTMPVAMATTLRKLLTGELLTLASRQQLIDWMEADKVAGPLLRSALPAGWFIADKSGAGERGSRGIIAALGPDGKPSRIVVIYTTGSQATMDERNRQIAEIGASLIKHW", "values": [{"measurement": "glycan array binding signal (z-score)", "setting": "[1]", "result": 2.6}, {"measurement": "glycan array binding signal (z-score)", "setting": "[2]", "result": 0.073}, {"measurement": "glycan array binding signal (z-score)", "setting": "[3]", "result": -0.369}, {"measurement": "glycan array binding signal (z-score)", "setting": "[4]", "result": 1.19}, {"measurement": "glycan array binding signal (z-score)", "setting": "[5]", "result": -1.03}, {"measurement": "glycan array binding signal (z-score)", "setting": "[6]", "result": 0.466}, {"measurement": "glycan array binding signal (z-score)", "setting": "[7]", "result": 0.924}, {"measurement": "glycan array binding signal (z-score)", "setting": "[8]", "result": 2.6}, {"measurement": "glycan array binding signal (z-score)", "setting": "[9]", "result": 0.072}, {"measurement": "glycan array binding signal (z-score)", "setting": "[10]", "result": 0.742}, {"measurement": "glycan array binding signal (z-score)", "setting": "[11]", "result": 2.8}, {"measurement": "glycan array binding signal (z-score)", "setting": "[12]", "result": 0.531}, {"measurement": "glycan array binding signal (z-score)", "setting": "[13]", "result": -1.29}, {"measurement": "glycan array binding signal (z-score)", "setting": "[14]", "result": -0.339}, {"measurement": "glycan array binding signal (z-score)", "setting": "[15]", "result": 1.31}, {"measurement": "glycan array binding signal (z-score)", "setting": "[16]", "result": -0.002}, {"measurement": "glycan array binding signal (z-score)", "setting": "[17]", "result": 0.113}, {"measurement": "glycan array binding signal (z-score)", "setting": "[18]", "result": 0.322}, {"measurement": "glycan array binding signal (z-score)", "setting": "[19]", "result": -0.382}, {"measurement": "glycan array binding signal (z-score)", "setting": "[20]", "result": -0.368}, {"measurement": "glycan array binding signal (z-score)", "setting": "[21]", "result": 0.553}, {"measurement": "glycan array binding signal (z-score)", "setting": "[22]", "result": -0.486}, {"measurement": "glycan array binding signal (z-score)", "setting": "[23]", "result": -0.291}, {"measurement": "glycan array binding signal (z-score)", "setting": "[24]", "result": -1.17}, {"measurement": "glycan array binding signal (z-score)", "setting": "[25]", "result": -0.489}, {"measurement": "glycan array binding signal (z-score)", "setting": "Gal(b1-4)GlcNAc6P", "result": -0.075}, {"measurement": "glycan array binding signal (z-score)", "setting": "Gal(b1-6)Gal", "result": 2.58}, {"measurement": "glycan array binding signal (z-score)", "setting": "Gal3S(b1-3)GalNAc", "result": 0.228}, {"measurement": "glycan array binding signal (z-score)", "setting": "Gal3S(b1-3)GlcNAc", "result": -0.868}, {"measurement": "glycan array binding signal (z-score)", "setting": "[26]", "result": 0.848}]}
